Test results reported in patent US20230406833A1, “HERBICIDAL MALONAMIDES” (BASF SE, priority 2020, published 2023).
Some entries share one result that the patent states for a list of compounds.

Legend:
Type in all cases: in vivo
[1] = tested on: Amaranthus retroflexus (AMARE); assay: greenhouse pre-emergence herbicidal test; conditions: scale from 0 to 100
[2] = tested on: Alopercurus myosuroides (ALOMY); assay: greenhouse post-emergence herbicidal test; conditions: scale from 0 to 100
[3] = tested on: Amaranthus retroflexus (AMARE); assay: greenhouse post-emergence herbicidal test; conditions: scale from 0 to 100
Avena fatua (AVEFA) = assay: greenhouse post-emergence herbicidal test; conditions: 0.250 kg/ha, scale from 0 to 100
[4] = tested on: Echinocloa crus-galli (ECHCG); assay: greenhouse post-emergence herbicidal test
[5] = tested on: Abutilon theophrasti (ABUTH); assay: greenhouse post-emergence herbicidal test; conditions: scale from 0 to 100
[6] = tested on: Apera spica-venti (APESV); assay: greenhouse pre-emergence herbicidal test
Setaria viridis (SETVI) = assay: greenhouse post-emergence herbicidal test; conditions: scale from 0 to 100
Setaria faberi (SETFA) = assay: greenhouse pre-emergence herbicidal test; conditions: scale from 0 to 100
[7] = tested on: Echinocloa crus-galli (ECHCG); assay: greenhouse pre-emergence herbicidal test; conditions: scale from 0 to 100
[8] = 0.250 kg/ha, scale from 0 to 100
[9] = 0.500 kg/ha, scale from 0 to 100
[10] = 0.250 kg/ha, scale from 0 to 100, listed as I139

O=C([O-])C1C=CC(NC(=O)C2(C(=O)Nc3cc(Cl)cc(Cl)c3)C=CCO2)C1.[Na+] (mixture of isomers) [I.201]
herbicidal activity against AMARE ([1]; 0.250 kg/ha): good (A good herbicidal activity is given at values of 70 to <90)
herbicidal activity against ALOMY ([2]; 0.250 kg/ha): good (A good herbicidal activity is given at values of 70 to <90)
herbicidal activity against AMARE ([3]; 0.250 kg/ha): good (A good herbicidal activity is given at values of 70 to <90)
herbicidal activity against AVEFA (Avena fatua (AVEFA)): very good (a very good herbicidal activity is given at values of 90 to 100)
herbicidal activity against ECHCG [4, 8]: very good (a very good herbicidal activity is given at values of 90 to 100)

CC(C)OC(=O)C1C=CC(NC(=O)C2(C(=O)Nc3cc(F)c(Cl)c(Cl)c3)C=CCO2)C1 (mixture of isomers) [I.197]
herbicidal activity against ALOMY ([2]; 0.250 kg/ha): very good (a very good herbicidal activity is given at values of 90 to 100)
herbicidal activity against AMARE ([3]; 0.250 kg/ha): good (A good herbicidal activity is given at values of 70 to <90)
herbicidal activity against AVEFA (Avena fatua (AVEFA)): good (A good herbicidal activity is given at values of 70 to <90)
herbicidal activity against ECHCG [4, 8]: very good (a very good herbicidal activity is given at values of 90 to 100)

COC(=O)CCCNC(=O)C1(C(=O)Nc2cc(Cl)cc(Cl)c2)CCCO1 (centres unmarked) [Compound I18, methyl 4-[[2-[(3,5-dichlorophenyl)carbamoyl]tetrahydrofuran-2-carbonyl]amino]butanoate]
herbicidal activity against ALOMY ([2]; 0.500 kg/ha): good (A good herbicidal activity is given at values of 70 to <90)
herbicidal activity against AMARE ([3]; 0.500 kg/ha): good (A good herbicidal activity is given at values of 70 to <90)

COC(=O)[C@@H]1C=C[C@H](NC(=O)C2(C(=O)Nc3cc(Cl)cc(Cl)c3)OCCS2)C1 (stereo partly drawn) [I.20, methyl (1S,4R)-4-[[2-[(3,5-dichlorophenyl)carbamoyl]-1,3-oxathiolane-2-carbonyl]amino]cyclopent-2-ene-1-carboxylate]
herbicidal activity against ABUTH ([5]; 0.250 kg/ha): good (A good herbicidal activity is given at values of 70 to <90)
herbicidal activity against ALOMY ([2]; 0.250 kg/ha): very good (a very good herbicidal activity is given at values of 90 to 100)

COC(=O)CC(C)NC(=O)C1(C(=O)Nc2cc(F)cc(F)c2)CCO1 (centres unmarked) [I.138]
herbicidal activity against AMARE ([1]; 0.250 kg/ha): very good (a very good herbicidal activity is given at values of 90 to 100)
herbicidal activity against APESV [6, 8]: very good (a very good herbicidal activity is given at values of 90 to 100)
herbicidal activity against AVEFA (Avena fatua (AVEFA)): very good (a very good herbicidal activity is given at values of 90 to 100)
herbicidal activity against ECHCG [4, 8]: very good (a very good herbicidal activity is given at values of 90 to 100)
herbicidal activity against SETVI (Setaria viridis (SETVI); 0.250 kg/ha): very good (a very good herbicidal activity is given at values of 90 to 100)

CC(C)OC(=O)C1C=CC(NC(=O)C2(C(=O)Nc3cc(F)c(F)c(F)c3)CCCO2)C1 (centres unmarked) [I.118]
herbicidal activity against SETFA (Setaria faberi (SETFA); 0.250 kg/ha): very good (a very good herbicidal activity is given at values of 90 to 100)
herbicidal activity against ALOMY ([2]; 0.250 kg/ha): very good (a very good herbicidal activity is given at values of 90 to 100)
herbicidal activity against AVEFA (Avena fatua (AVEFA)): very good (a very good herbicidal activity is given at values of 90 to 100)
herbicidal activity against ECHCG [4, 8]: very good (a very good herbicidal activity is given at values of 90 to 100)

CC(C)OC(=O)C1C=CC(NC(=O)C2(C(=O)Nc3cc(Cl)cc(Cl)c3)CCO2)C1 (mixture of isomers) [I.9]
herbicidal activity against AMARE ([1]; 0.500 kg/ha): very good (a very good herbicidal activity is given at values of 90 to 100)
herbicidal activity against APESV [6, 9]: very good (a very good herbicidal activity is given at values of 90 to 100)
herbicidal activity against ECHCG ([7]; 0.500 kg/ha): very good (a very good herbicidal activity is given at values of 90 to 100)
herbicidal activity against ABUTH ([5]; 0.500 kg/ha): very good (a very good herbicidal activity is given at values of 90 to 100)
herbicidal activity against AMARE ([3]; 0.500 kg/ha): very good (a very good herbicidal activity is given at values of 90 to 100)
herbicidal activity against ECHCG [4, 9]: very good (a very good herbicidal activity is given at values of 90 to 100)

O=C(OCC1CC1)C1C=CC(NC(=O)C2(C(=O)Nc3cc(Cl)cc(Cl)c3)C=CCO2)C1 (mixture of isomers) [I.199]
herbicidal activity against ALOMY ([2]; 0.250 kg/ha): good (A good herbicidal activity is given at values of 70 to <90)
herbicidal activity against AMARE ([3]; 0.250 kg/ha): good (A good herbicidal activity is given at values of 70 to <90)
herbicidal activity against AVEFA (Avena fatua (AVEFA)): very good (a very good herbicidal activity is given at values of 90 to 100)
herbicidal activity against ECHCG [4, 8]: very good (a very good herbicidal activity is given at values of 90 to 100)

COC(=O)C[C@H](C)NC(=O)C1(C(=O)Nc2cc(Cl)cc(Cl)c2)CCCO1 (stereo partly drawn) [I.17, methyl (3S)-3-[[2-[(3,5-dichlorophenyl)carbamoyl]tetrahydrofuran-2-carbonyl]amino]butanoate]
herbicidal activity against AMARE ([1]; 0.500 kg/ha): very good (a very good herbicidal activity is given at values of 90 to 100)
herbicidal activity against SETFA (Setaria faberi (SETFA); 0.500 kg/ha): very good (a very good herbicidal activity is given at values of 90 to 100)
herbicidal activity against ALOMY ([2]; 0.500 kg/ha): good (A good herbicidal activity is given at values of 70 to <90)
herbicidal activity against SETVI (Setaria viridis (SETVI); 0.500 kg/ha): very good (a very good herbicidal activity is given at values of 90 to 100)

COC(=O)CCC(C)NC(=O)C1(C(=O)Nc2cc(F)cc(F)c2)CCO1 (centres unmarked) [I.139]
herbicidal activity against AMARE ([1]; 0.250 kg/ha): very good (a very good herbicidal activity is given at values of 90 to 100)
herbicidal activity against APESV [6, 10]: good (A good herbicidal activity is given at values of 70 to <90)
herbicidal activity against AVEFA (Avena fatua (AVEFA)): good (A good herbicidal activity is given at values of 70 to <90)
herbicidal activity against ECHCG [4, 10]: good (A good herbicidal activity is given at values of 70 to <90)

COC(=O)CC(C)NC(=O)C1(C(=O)Nc2cc(Cl)cc(Cl)c2)OCCO1 (racemic) [I.19]
herbicidal activity against APESV [6, 9]: very good (a very good herbicidal activity is given at values of 90 to 100)
herbicidal activity against ALOMY ([2]; 0.500 kg/ha): very good (a very good herbicidal activity is given at values of 90 to 100)
herbicidal activity against ECHCG [4, 9]: very good (a very good herbicidal activity is given at values of 90 to 100)
herbicidal activity against SETVI (Setaria viridis (SETVI); 0.500 kg/ha): very good (a very good herbicidal activity is given at values of 90 to 100)

CC(CCC(=O)NCC#N)NC(=O)C1(C(=O)Nc2cc(F)cc(F)c2)CCO1 (centres unmarked) [I.142]
herbicidal activity against APESV [6, 8]: very good (a very good herbicidal activity is given at values of 90 to 100)
herbicidal activity against ECHCG ([7]; 0.250 kg/ha): good (A good herbicidal activity is given at values of 70 to <90)
herbicidal activity against ALOMY ([2]; 0.250 kg/ha): very good (a very good herbicidal activity is given at values of 90 to 100)
herbicidal activity against AMARE ([3]; 0.250 kg/ha): very good (a very good herbicidal activity is given at values of 90 to 100)
herbicidal activity against SETVI (Setaria viridis (SETVI); 0.250 kg/ha): very good (a very good herbicidal activity is given at values of 90 to 100)

COC(=O)CCCNC(=O)C1(C(=O)Nc2cc(Cl)cc(Cl)c2)COCO1 (centres unmarked) [I.23, methyl 4-[[4-[(3,5-dichlorophenyl)carbamoyl]-1,3-dioxolane-4-carbonyl]amino]butanoate]
herbicidal activity against SETFA (Setaria faberi (SETFA); 0.250 kg/ha): very good (a very good herbicidal activity is given at values of 90 to 100)
herbicidal activity against ALOMY ([2]; 0.500 kg/ha): good (A good herbicidal activity is given at values of 70 to <90)

CC(CC(=O)OCc1ccco1)NC(=O)C1(C(=O)Nc2cc(F)cc(F)c2)CCO1 (centres unmarked) [I.151]
herbicidal activity against ALOMY ([2]; 0.250 kg/ha): very good (a very good herbicidal activity is given at values of 90 to 100)
herbicidal activity against AVEFA (Avena fatua (AVEFA)): good (A good herbicidal activity is given at values of 70 to <90)
herbicidal activity against ECHCG [4, 8]: very good (a very good herbicidal activity is given at values of 90 to 100)

COC(=O)CC[C@H](C)NC(=O)C1(C(=O)Nc2cc(Cl)cc(Cl)c2)OCCS1 (stereo partly drawn) [I.21, methyl (4S)-4-[[2-[(3,5-dichlorophenyl)carbamoyl]-1,3-oxathiolane-2-carbonyl]amino]pentanoate]
herbicidal activity against ABUTH ([5]; 0.250 kg/ha): good (A good herbicidal activity is given at values of 70 to <90)
herbicidal activity against ALOMY ([2]; 0.250 kg/ha): very good (a very good herbicidal activity is given at values of 90 to 100)

COC(=O)[C@@H]1CCC[C@@H]1NC(=O)C1(C(=O)Nc2cc(F)cc(F)c2)CCO1 (some centres unmarked) [I.158]
herbicidal activity against ALOMY ([2]; 0.250 kg/ha): good (A good herbicidal activity is given at values of 70 to <90)
herbicidal activity against AVEFA (Avena fatua (AVEFA)): good (A good herbicidal activity is given at values of 70 to <90)

COC(=O)[C@@H]1C=C[C@H](NC(=O)C2(C(=O)Nc3cc(F)cc(F)c3)CCO2)C1 (stereo partly drawn) [Compound I1, methyl (1S,4R)-4-[[2-[(3,5-difluorophenyl)carbamoyl]oxetane-2-carbonyl]amino]cyclopent-2-ene-1-carboxylate]
herbicidal activity against ECHCG ([7]; 0.250 kg/ha): very good (a very good herbicidal activity is given at values of 90 to 100)
herbicidal activity against SETFA (Setaria faberi (SETFA); 0.250 kg/ha): very good (a very good herbicidal activity is given at values of 90 to 100)
herbicidal activity against ABUTH ([5]; 0.250 kg/ha): very good (a very good herbicidal activity is given at values of 90 to 100)
herbicidal activity against ALOMY ([2]; 0.250 kg/ha): very good (a very good herbicidal activity is given at values of 90 to 100)

O=C(O)C1=CC[C@H](NC(=O)C2(C(=O)Nc3cc(F)cc(F)c3)C=CCO2)C1 (some centres unmarked) [I.104]
herbicidal activity against AMARE ([1]; 0.250 kg/ha): very good (a very good herbicidal activity is given at values of 90 to 100)
herbicidal activity against ECHCG ([7]; 0.250 kg/ha): very good (a very good herbicidal activity is given at values of 90 to 100)
herbicidal activity against SETFA (Setaria faberi (SETFA); 0.250 kg/ha): very good (a very good herbicidal activity is given at values of 90 to 100)
herbicidal activity against AMARE ([3]; 0.250 kg/ha): very good (a very good herbicidal activity is given at values of 90 to 100)
herbicidal activity against AVEFA (Avena fatua (AVEFA)): very good (a very good herbicidal activity is given at values of 90 to 100)
herbicidal activity against ECHCG [4, 8]: very good (a very good herbicidal activity is given at values of 90 to 100)
